Laboratory results published in the supplement of paper PMC10849652.
Some of the results follow.

Protein sequences, listed by entry. Tags and fused reporters are not part of them. Lines headed by an entry give the natural chain unless they say otherwise; changes in a name come on top.
UniProt P13489: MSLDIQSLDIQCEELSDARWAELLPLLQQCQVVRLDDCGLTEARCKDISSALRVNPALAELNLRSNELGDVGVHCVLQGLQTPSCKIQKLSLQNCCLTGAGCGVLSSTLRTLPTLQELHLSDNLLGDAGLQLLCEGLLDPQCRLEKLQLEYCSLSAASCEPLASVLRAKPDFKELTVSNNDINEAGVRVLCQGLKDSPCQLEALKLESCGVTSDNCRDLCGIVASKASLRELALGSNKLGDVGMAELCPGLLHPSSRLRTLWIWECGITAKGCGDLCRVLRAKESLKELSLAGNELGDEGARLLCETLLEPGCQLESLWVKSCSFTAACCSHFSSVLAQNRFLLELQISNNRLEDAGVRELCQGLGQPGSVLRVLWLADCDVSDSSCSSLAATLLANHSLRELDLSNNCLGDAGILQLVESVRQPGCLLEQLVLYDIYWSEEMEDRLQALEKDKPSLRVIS
UniProt Q8IZ73: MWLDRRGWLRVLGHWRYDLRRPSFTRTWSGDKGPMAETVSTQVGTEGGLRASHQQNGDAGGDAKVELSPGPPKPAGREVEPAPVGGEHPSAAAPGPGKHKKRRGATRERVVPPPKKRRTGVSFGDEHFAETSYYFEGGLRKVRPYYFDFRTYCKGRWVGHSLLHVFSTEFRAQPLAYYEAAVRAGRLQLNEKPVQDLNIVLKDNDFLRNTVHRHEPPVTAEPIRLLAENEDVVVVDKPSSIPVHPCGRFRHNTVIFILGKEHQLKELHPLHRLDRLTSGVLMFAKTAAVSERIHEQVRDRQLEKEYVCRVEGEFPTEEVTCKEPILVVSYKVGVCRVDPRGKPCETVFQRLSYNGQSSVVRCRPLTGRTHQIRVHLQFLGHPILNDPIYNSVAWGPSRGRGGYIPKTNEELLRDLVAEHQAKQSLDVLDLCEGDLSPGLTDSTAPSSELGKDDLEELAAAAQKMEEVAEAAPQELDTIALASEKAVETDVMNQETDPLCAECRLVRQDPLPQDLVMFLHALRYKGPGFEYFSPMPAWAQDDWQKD
UniProt P10301: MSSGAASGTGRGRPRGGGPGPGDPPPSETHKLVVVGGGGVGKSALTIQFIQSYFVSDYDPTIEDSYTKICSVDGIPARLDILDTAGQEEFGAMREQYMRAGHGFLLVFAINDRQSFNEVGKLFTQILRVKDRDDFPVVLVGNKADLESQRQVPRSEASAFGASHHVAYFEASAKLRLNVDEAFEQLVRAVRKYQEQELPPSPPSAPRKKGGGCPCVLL
UniProt Q99942: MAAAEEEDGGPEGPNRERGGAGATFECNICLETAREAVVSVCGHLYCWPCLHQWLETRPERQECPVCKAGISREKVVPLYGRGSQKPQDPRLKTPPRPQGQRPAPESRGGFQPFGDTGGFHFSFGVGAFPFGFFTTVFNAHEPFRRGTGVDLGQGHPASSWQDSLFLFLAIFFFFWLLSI
UniProt P04843: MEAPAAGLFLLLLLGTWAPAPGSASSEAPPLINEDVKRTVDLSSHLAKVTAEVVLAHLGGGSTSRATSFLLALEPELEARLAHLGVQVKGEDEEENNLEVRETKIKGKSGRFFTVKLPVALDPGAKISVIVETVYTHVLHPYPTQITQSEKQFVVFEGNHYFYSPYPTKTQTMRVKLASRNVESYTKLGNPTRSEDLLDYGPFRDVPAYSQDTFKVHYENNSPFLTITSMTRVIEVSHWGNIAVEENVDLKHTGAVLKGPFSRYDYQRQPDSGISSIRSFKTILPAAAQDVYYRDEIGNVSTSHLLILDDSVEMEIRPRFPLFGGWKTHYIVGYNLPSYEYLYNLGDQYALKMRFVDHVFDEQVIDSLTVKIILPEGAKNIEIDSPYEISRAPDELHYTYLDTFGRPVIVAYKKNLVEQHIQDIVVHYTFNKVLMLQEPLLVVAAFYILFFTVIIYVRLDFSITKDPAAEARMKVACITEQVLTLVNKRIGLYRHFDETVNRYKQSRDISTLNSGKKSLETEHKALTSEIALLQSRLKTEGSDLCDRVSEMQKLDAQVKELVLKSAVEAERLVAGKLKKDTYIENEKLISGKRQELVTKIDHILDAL
UniProt Q96BH1: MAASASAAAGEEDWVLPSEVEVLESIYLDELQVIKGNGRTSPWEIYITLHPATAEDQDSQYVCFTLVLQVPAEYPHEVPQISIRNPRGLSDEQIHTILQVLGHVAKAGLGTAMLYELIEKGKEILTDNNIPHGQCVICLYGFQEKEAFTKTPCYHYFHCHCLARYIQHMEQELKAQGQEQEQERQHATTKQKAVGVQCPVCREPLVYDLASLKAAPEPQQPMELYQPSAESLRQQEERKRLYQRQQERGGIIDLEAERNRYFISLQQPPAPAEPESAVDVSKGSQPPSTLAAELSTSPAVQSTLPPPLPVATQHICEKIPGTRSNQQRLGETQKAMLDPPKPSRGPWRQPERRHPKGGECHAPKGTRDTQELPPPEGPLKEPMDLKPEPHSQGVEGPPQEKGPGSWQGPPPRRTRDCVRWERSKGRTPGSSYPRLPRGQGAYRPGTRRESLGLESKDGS
UniProt O75116: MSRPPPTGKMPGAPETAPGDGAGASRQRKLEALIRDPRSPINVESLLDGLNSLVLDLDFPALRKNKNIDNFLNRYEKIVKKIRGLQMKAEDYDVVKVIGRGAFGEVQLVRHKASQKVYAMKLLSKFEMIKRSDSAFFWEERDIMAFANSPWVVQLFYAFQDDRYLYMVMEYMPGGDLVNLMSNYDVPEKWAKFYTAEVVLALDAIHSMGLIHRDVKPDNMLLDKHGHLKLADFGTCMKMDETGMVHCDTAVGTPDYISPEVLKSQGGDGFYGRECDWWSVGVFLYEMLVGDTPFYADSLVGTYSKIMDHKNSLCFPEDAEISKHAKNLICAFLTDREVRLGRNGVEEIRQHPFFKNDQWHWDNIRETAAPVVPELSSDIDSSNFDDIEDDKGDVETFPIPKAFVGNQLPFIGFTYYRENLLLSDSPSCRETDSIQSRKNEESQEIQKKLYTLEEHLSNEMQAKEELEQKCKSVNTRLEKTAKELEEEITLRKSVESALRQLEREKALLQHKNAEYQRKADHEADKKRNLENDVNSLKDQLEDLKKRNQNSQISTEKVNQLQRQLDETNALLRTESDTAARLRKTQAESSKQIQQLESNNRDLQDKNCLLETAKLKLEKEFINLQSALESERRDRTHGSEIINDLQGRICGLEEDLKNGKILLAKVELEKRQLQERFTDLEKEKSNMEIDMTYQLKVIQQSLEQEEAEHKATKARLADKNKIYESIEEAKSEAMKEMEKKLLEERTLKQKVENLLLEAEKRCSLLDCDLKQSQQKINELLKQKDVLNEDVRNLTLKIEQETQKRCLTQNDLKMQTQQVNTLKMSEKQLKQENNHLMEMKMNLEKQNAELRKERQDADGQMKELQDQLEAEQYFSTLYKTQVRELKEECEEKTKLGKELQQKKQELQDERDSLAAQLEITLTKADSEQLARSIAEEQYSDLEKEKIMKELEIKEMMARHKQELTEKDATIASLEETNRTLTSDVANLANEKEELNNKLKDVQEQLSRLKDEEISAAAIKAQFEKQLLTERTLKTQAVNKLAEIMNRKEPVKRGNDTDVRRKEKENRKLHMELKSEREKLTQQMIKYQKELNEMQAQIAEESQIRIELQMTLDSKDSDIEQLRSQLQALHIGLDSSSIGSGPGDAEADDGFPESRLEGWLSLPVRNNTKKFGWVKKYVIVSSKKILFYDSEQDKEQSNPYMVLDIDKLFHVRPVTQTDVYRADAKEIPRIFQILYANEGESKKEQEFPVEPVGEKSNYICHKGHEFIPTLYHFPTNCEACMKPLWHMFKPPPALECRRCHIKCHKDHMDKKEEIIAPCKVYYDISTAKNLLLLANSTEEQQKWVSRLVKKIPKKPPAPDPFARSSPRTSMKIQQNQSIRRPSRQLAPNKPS
UniProt P04844: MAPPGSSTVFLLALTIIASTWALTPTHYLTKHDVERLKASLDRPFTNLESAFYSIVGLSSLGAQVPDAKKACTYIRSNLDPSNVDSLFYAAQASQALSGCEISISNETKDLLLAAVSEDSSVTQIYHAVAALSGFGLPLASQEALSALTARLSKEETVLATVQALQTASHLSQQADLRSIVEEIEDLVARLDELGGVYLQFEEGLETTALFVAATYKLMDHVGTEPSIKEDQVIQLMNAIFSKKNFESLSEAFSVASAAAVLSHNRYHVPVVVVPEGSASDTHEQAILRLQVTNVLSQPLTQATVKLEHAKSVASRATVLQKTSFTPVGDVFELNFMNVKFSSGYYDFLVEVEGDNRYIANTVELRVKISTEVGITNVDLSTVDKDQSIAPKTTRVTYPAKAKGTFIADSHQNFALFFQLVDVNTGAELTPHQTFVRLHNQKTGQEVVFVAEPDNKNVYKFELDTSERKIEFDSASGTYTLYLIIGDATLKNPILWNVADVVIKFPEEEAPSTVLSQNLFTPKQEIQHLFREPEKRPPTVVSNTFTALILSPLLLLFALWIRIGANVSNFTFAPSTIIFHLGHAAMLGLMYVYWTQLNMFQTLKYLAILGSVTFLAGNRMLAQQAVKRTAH
UniProt Q15349, whole entry, looked up: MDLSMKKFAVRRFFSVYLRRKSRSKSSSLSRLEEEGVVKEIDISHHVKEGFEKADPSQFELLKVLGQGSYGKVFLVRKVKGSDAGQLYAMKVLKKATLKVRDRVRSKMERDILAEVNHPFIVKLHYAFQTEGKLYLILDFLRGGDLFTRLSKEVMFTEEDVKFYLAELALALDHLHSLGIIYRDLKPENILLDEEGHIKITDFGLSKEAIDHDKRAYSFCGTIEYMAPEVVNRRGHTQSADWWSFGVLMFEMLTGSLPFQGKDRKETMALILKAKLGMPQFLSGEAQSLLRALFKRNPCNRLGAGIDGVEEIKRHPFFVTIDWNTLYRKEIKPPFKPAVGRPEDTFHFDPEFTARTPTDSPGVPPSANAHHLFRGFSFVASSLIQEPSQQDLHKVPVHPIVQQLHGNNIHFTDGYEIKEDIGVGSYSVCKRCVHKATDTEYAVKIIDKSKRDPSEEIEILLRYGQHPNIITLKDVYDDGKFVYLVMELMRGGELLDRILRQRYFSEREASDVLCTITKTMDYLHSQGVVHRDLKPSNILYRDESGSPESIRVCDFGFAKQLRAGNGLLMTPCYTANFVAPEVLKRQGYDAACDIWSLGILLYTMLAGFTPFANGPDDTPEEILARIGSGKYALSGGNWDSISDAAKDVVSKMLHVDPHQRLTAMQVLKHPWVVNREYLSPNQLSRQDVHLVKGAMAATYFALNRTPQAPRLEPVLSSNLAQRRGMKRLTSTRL
UniProt O43148, whole entry, looked up: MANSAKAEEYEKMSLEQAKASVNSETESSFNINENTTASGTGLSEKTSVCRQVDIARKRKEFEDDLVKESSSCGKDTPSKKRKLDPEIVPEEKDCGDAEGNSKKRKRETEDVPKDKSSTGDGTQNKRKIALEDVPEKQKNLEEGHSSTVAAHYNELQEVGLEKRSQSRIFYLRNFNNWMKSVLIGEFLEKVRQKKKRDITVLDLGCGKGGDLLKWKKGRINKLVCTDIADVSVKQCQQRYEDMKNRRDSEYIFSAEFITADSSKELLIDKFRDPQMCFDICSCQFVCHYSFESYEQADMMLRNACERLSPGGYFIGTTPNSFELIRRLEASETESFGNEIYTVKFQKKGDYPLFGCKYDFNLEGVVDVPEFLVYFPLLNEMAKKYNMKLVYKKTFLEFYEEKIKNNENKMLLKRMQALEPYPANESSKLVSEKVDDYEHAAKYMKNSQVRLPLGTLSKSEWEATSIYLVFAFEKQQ

Tests used:
Experiment in all cases: log2 fold change, soluble protein after heating vs DMSO (PISA); higher = thermal stabilisation; K562 cells, 10 uM, 30 min; active = over 0.2 and 3.5 SD of the protein, either way, in both replicates (recomputed)
[1] = compound: CC1=C(C=C(C=C1)NC(=O)C2=CC(=CC=C2)C(C)(C)C#N)NC3=CC4=C(C=C3)N=CN(C4=O)C
How it was run: (§1)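 K562 cells at 2×10^6 cells/mL were given 10 μM compound for 30 min. Aliquots then went through 3 min of heating across 48°C-58°C, were pooled, and were extracted in PBS with 0.5% NP-40 at 4°C, and the supernatant after 21,000xg for 90 min was quantified by TMTpro 16plex LC-MS/MS with channel sums equalised. Thermal stability relative to control samples, from duplicates, is given as log2 fold change.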

[2] = compound: CC1=C(C=C(C=C1)NC(=O)C2=CC(=CC=C2)N(C)C)NC(=O)C3=CC=C(C=C3)O
How it was run: as §1

[3] = compound: CC1=CC=C(C=C1)SC2=C3C=C(SC3=CN=C2)C(=O)N
How it was run: as §1

[4] = compound: CC1=NC(=CC=C1)C2=C(N=C(N2)C(C)(C)C)C3=CC4=NC=CN=C4C=C3
How it was run: as §1

Nexturastat A = compound: CCCCN(Cc1ccc(C(=O)NO)cc1)C(=O)Nc1ccccc1 [Nexturastat A]
How it was run: as §1

vemurafenib = compound: CCCS(=O)(=O)Nc1ccc(F)c(C(=O)c2c[nH]c3ncc(-c4ccc(Cl)cc4)cc23)c1F [vemurafenib]
How it was run: as §1

[5] = compound: CCCS(=O)(=O)Nc1ccc(F)c(C(=O)c2c[nH]c3ncc(Cl)cc23)c1F
How it was run: as §1

[6] = compound: CCCc1cc(C)[nH]c(=O)c1CNC(=O)c1cc(-c2ccnc(N3CCN(C)CC3)c2)cc2c1cnn2C(C)C
How it was run: as §1

givinostat = compound: CCN(CC)Cc1ccc2cc(COC(=O)Nc3ccc(C(=O)NO)cc3)ccc2c1 [givinostat]
How it was run: as §1

barasertib = compound: CCN(CCCOc1ccc2c(Nc3cc(CC(=O)Nc4cccc(F)c4)[nH]n3)ncnc2c1)CCOP(=O)(O)O [barasertib]
How it was run: as §1

Measured: log2 fold change

RNH1 (UniProt P13489)
inactive: [1] 0.04 | [2] 0.001 | [3] 0.017 | [4] 0.071 | Nexturastat A -0.065 | vemurafenib -0.011 | [5] 0.039 | [6] -0.03 | givinostat -0.062 | barasertib 0.019

RPL36 (UniProt Q9Y3U8)
inactive: [1] 0.032 | [2] -0.034 | [3] -0.026 | [4] -0.24 | Nexturastat A 0.373 | vemurafenib -0.222 | [5] -0.087 | [6] 0.231 | givinostat 0.08 | barasertib -0.181

RPS14 (UniProt P62263)
inactive: [1] 0.03 | [2] 0 | [3] -0.041 | [4] -0.004 | Nexturastat A 0.102 | vemurafenib -0.066 | [5] -0.038 | [6] 0.046 | givinostat 0.023 | barasertib -0.04

RPL27 (UniProt P61353)
inactive: [1] -0.002 | [2] -0.006 | [3] -0.084 | [4] -0.176 | Nexturastat A 0.341 | vemurafenib -0.137 | [5] -0.038 | [6] 0.2 | givinostat 0.1 | barasertib -0.218

RPL32 (UniProt P62910)
inactive: [1] 0.049 | [2] 0 | [3] -0.039 | [4] -0.176 | Nexturastat A 0.349 | vemurafenib -0.223 | [5] -0.063 | [6] 0.202 | givinostat 0.004 | barasertib -0.183

RPL28 (UniProt P46779)
inactive: [1] 0.037 | [2] 0 | [3] 0.013 | [4] -0.199 | Nexturastat A 0.393 | vemurafenib -0.263 | [5] -0.118 | [6] 0.298 | givinostat 0.09 | barasertib -0.171

RPUSD2 (UniProt Q8IZ73)
inactive: [1] 0.055 | [2] 0.031 | [3] -0.007 | [4] 0.01 | Nexturastat A 0.006 | vemurafenib -0.016 | [5] 0.014 | [6] 0.045 | givinostat -0.009 | barasertib -0.015

RRAS (UniProt P10301)
inactive: [1] -0.006 | [2] -0.006 | [3] -0.028 | [4] 0.026 | Nexturastat A -0.087 | vemurafenib 0.027 | [5] -0.005 | [6] -0.014 | givinostat 0.026 | barasertib -0.035

RPS28 (UniProt P62857)
inactive: [1] 0.02 | [2] 0.032 | [3] -0.091 | [4] -0.004 | Nexturastat A 0 | vemurafenib -0.088 | [5] -0.155 | [6] 0.001 | givinostat -0.031 | barasertib 0.005

RPL15 (UniProt P61313)
inactive: [1] -0.049 | [2] 0 | [3] -0.035 | [4] -0.209 | Nexturastat A 0.394 | vemurafenib -0.341 | [5] -0.096 | [6] 0.276 | givinostat 0.136 | barasertib -0.204

RPS15A (UniProt P62244)
inactive: [1] -0.019 | [2] 0.029 | [3] -0.052 | [4] -0.095 | Nexturastat A 0.211 | vemurafenib -0.104 | [5] -0.03 | [6] 0.117 | givinostat 0.016 | barasertib -0.118

RNF5 (UniProt Q99942)
inactive: [1] -0.02 | [2] 0.087 | [3] 0.03 | [4] 0.039 | Nexturastat A -0.052 | vemurafenib -0.024 | [5] 0.005 | [6] 0.023 | givinostat 0.129 | barasertib 0.037

RPN1 (UniProt P04843)
inactive: [1] 0.013 | [2] 0.016 | [3] 0.001 | [4] 0.032 | Nexturastat A -0.042 | vemurafenib -0.014 | [5] 0.019 | [6] -0.01 | givinostat 0.006 | barasertib 0.009

RPL39P5 (UniProt Q59GN2)
inactive: [1] -0.109 | [2] -0.031 | [3] -0.055 | [4] -0.161 | Nexturastat A 0.469 | vemurafenib -0.063 | [5] 0.001 | [6] 0.08 | givinostat 0.003 | barasertib -0.144

RPL29 (UniProt P47914)
inactive: [1] 0.018 | [2] -0.019 | [3] -0.077 | [4] -0.206 | Nexturastat A 0.071 | vemurafenib -0.172 | [5] 0 | [6] 0.243 | givinostat 0.028 | barasertib -0.139

RPL21 (UniProt P46778)
inactive: [1] 0.034 | [2] -0.002 | [3] -0.163 | [4] -0.235 | Nexturastat A 0.624 | vemurafenib -0.353 | [5] -0.146 | [6] 0.163 | givinostat 0.152 | barasertib -0.151

RPS25 (UniProt P62851)
inactive: [1] 0.009 | [2] 0 | [3] -0.03 | [4] 0 | Nexturastat A 0.11 | vemurafenib -0.08 | [5] -0.102 | [6] 0.06 | givinostat 0.042 | barasertib -0.075

RNF25 (UniProt Q96BH1)
inactive: [1] 0.019 | [2] 0.029 | [3] 0.037 | [4] 0.063 | Nexturastat A -0.04 | vemurafenib 0.03 | [5] 0.053 | [6] -0.018 | givinostat -0.03 | barasertib 0.004

RPS16 (UniProt P62249)
inactive: [1] 0.028 | [2] -0.016 | [3] -0.087 | [4] -0.035 | Nexturastat A 0.11 | vemurafenib -0.073 | [5] -0.103 | [6] 0.337 | givinostat -0.046 | barasertib -0.053

RPS3A (UniProt D6R9B6)
inactive: [1] -0.199

Two entries picked at random from the list so far:
RNF25 (UniProt Q96BH1)
inactive: [1] 0.019 | [2] 0.029 | [3] 0.037 | [4] 0.063 | Nexturastat A -0.04 | vemurafenib 0.03 | [5] 0.053 | [6] -0.018 | givinostat -0.03 | barasertib 0.004

RPS25 (UniProt P62851)
inactive: [1] 0.009 | [2] 0 | [3] -0.03 | [4] 0 | Nexturastat A 0.11 | vemurafenib -0.08 | [5] -0.102 | [6] 0.06 | givinostat 0.042 | barasertib -0.075

(next part)

RPS5 (UniProt P46782)
inactive: [1] 0.012 | [2] 0 | [3] 0.001 | [4] -0.038 | Nexturastat A 0.126 | vemurafenib -0.034 | [5] -0.066 | [6] 0.038 | givinostat -0.014 | barasertib -0.1

ROCK2 (UniProt O75116)
inactive: [1] 0.009 | [2] -0.044 | [3] -0.037 | [4] 0.02 | Nexturastat A -0.004 | vemurafenib 0.034 | [5] -0.005 | [6] -0.06 | givinostat 0.055 | barasertib 0.027

RPL18A (UniProt Q02543)
inactive: [1] 0.02 | [2] 0.002 | [3] -0.081 | [4] -0.263 | Nexturastat A 0.384 | vemurafenib -0.3 | [5] -0.099 | [6] 0.241 | givinostat 0.08 | barasertib -0.189

RPS7 (UniProt P62081)
inactive: [1] 0.014 | [2] 0.022 | [3] -0.031 | [4] -0.064 | Nexturastat A 0.208 | vemurafenib -0.061 | [5] -0.022 | [6] 0.212 | givinostat 0 | barasertib -0.09

RPN2 (UniProt P04844)
inactive: [1] 0.003 | [2] 0.031 | [3] 0.018 | [4] 0.019 | Nexturastat A -0.076 | vemurafenib 0.017 | [5] 0.043 | [6] -0.025 | givinostat 0.002 | barasertib -0.011

RPS6KA2 isoform 2 (UniProt Q15349)
inactive: [1] -0.087 | [2] -0.229 | [3] 0.159 | [4] 0.011 | Nexturastat A 0.009 | vemurafenib 0.037 | [5] 0.026 | [6] 0.023 | givinostat -0.148 | barasertib 0.064

RNMT isoform 2 (UniProt O43148)
inactive: [1] -0.01 | [2] 0.007 | [3] -0.037 | [4] -0.016 | Nexturastat A 0.059 | vemurafenib -0.139 | [5] 0 | [6] -0.017 | givinostat -0.011 | barasertib -0.024

RPL23 (UniProt P62829)
inactive: [1] 0.014 | [2] 0.026 | [3] -0.032 | [4] -0.051 | Nexturastat A 0.199 | vemurafenib -0.074 | [5] -0.087 | [6] 0.111 | givinostat 0.029 | barasertib -0.063

RPL3 (UniProt P39023)
inactive: [1] 0.016 | [2] -0.009 | [3] -0.068 | [4] -0.23 | Nexturastat A 0.375 | vemurafenib -0.322 | [5] -0.102 | [6] 0.288 | givinostat 0.154 | barasertib -0.204

RPS26 (UniProt P62854)
inactive: [1] 0.046 | [2] 0.03 | [3] -0.009 | [4] -0.06 | Nexturastat A 0.342 | vemurafenib -0.165 | [5] -0.038 | [6] 0.033 | givinostat 0.079 | barasertib -0.131
